Measured data: PubChem BioAssay AID1159584 (Peter MacCallum Cancer Centre, 2016)
Test: 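Knock-downs that harm CDH1-null cells more than parental MCF10A cells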 (primary screen). Cells: human MCF10A breast epithelial cells, parental and CDH1-null. Knock-down reagent: siRNA against human genes. Measurement: 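ATP luminescence (CellTiter-Glo) viability per line relative to mean mock wells over all plates, and the ratio of CDH1-null to parental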. Reading the numbers: CDH1-null / parental viability ratio: higher = CDH1-null cells survive relatively better than parental.
The deposit covers about 18,000 reagents; shown is an unselected part. Further read-outs or replicates are left out here. The record does not give: the amount of reagent, the time to read-out.

RHOBTB2 | CDH1-null / parental viability ratio = 1
TENT4A | CDH1-null / parental viability ratio = 0.99
PDE1A | CDH1-null / parental viability ratio = 0.78
GGN | CDH1-null / parental viability ratio = 1.13
LAMTOR1 | CDH1-null / parental viability ratio = 0.86
EIF4E3 | CDH1-null / parental viability ratio = 0.76
ZNF628 | CDH1-null / parental viability ratio = 1.44
PEX13 | CDH1-null / parental viability ratio = 0.92
ZNF747 | CDH1-null / parental viability ratio = 0.91
EGF | CDH1-null / parental viability ratio = 0.94
UBALD1 | CDH1-null / parental viability ratio = 1.07
H1-1 | CDH1-null / parental viability ratio = 0.91
WDR4 | CDH1-null / parental viability ratio = 0.73
DNPH1 | CDH1-null / parental viability ratio = 0.98
CXCL14 | CDH1-null / parental viability ratio = 0.98
SLC75A1 | CDH1-null / parental viability ratio = 1.15
PTTG1IP | CDH1-null / parental viability ratio = 0.98
CFAP206 | CDH1-null / parental viability ratio = 1.05
FXYD1 | CDH1-null / parental viability ratio = 1.08
TRAIP | CDH1-null / parental viability ratio = 0.99
TSPAN15 | CDH1-null / parental viability ratio = 0.97
SP140 | CDH1-null / parental viability ratio = 1.04
WDR19 | CDH1-null / parental viability ratio = 1.05
RPS11 | CDH1-null / parental viability ratio = 1
